Reference: patent publication US20080038257A1
Changes are numbered by the printed parent chain. These are yes or no findings as the source states them, for the method shown. Some binding calls cover weakened binding; strength is not graded here.

Chains of the proteins cited; added tags and fusions are not shown. Lines headed by an entry give the natural chain unless they say otherwise; changes in a name come on top. Residues count along the entry.
UniProt P14210, residues 32-728: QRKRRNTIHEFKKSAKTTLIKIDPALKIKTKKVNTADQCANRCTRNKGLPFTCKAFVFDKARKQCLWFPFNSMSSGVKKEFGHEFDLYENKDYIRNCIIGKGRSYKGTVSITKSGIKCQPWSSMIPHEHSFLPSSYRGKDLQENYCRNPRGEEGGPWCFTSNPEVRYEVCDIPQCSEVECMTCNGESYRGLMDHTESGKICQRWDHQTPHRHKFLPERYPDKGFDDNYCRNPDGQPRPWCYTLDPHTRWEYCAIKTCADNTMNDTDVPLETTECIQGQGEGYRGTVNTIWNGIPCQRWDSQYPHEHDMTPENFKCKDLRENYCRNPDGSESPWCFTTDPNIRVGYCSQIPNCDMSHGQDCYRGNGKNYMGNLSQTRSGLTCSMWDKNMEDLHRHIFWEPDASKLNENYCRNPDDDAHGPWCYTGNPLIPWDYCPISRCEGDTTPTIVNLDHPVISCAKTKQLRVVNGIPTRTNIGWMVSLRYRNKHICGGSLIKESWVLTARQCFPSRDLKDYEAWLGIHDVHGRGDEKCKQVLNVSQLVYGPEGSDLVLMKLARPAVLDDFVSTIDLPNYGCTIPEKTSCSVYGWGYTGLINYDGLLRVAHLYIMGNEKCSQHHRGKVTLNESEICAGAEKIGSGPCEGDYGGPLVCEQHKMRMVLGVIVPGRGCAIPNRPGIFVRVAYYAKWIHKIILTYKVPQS
UniProt Q08048: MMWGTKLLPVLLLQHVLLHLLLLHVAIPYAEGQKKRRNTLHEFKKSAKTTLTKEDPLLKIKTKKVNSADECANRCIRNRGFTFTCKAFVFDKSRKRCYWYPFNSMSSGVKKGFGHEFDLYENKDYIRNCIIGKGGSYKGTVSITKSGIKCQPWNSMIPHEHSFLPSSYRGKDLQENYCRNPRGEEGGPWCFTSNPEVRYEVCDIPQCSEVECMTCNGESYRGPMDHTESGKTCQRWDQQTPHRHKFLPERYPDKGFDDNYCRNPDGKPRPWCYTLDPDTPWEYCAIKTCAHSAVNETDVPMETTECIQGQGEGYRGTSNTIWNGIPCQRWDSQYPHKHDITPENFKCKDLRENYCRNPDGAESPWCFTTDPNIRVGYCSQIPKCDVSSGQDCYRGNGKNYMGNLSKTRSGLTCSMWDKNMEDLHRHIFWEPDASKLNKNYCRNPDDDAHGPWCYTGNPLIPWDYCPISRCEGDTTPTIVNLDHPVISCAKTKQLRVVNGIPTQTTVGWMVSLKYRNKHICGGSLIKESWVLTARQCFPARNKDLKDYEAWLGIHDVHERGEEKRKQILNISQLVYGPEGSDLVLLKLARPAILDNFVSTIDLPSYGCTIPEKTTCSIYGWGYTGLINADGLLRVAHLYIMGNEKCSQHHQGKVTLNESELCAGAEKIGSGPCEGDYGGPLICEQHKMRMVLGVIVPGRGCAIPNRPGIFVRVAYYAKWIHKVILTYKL

What was measured:
[1] = target: human HGF (recombinant hHGF protein of Example 3) (human) (UniProt P14210); assay: SPR, immobilised antibody, 25 C
[2] = target: human HGF (recombinant hHGF protein of Example 3) (human) (UniProt P14210); assay: SPR, immobilised antibody, 25 C, yes/no
[3] = target: reduced recombinant hHGF (human) (UniProt P14210); assay: immunoblot, reduced SDS-PAGE, antibody 5 µg/mL, exposure 3-5 min
[4] = target: reduced recombinant hHGF (human) (UniProt P14210); assay: immunoblot, reduced SDS-PAGE
[5] = target: mouse-human-mouse chimeric HGF containing human V495-L585 (mouse HGF with human HGF V495-L585) (UniProt Q08048); assay: SPR, immobilised antibody, 25 C
[6] = target: mouse-human-mouse chimeric HGF containing human V495-L585 (mouse HGF with human HGF V495-L585) (UniProt Q08048); assay: SPR, immobilised antibody, 25 C, yes/no

Measured: binding

B1: anti-hHGF monoclonal antibody 3B6 (antibody, mouse IgG1, kappa, V domains shown)
VH: QVQLQQSGAELVRPGSSVKISCKASGYVFSSYWMNWVKQRPGQGLEWIGQIYPGDGDSNYNGNFKGKATLTADKSSSTAYMQLSSLTSEDSAVYFCASQLGLRENYFDYWGQGTTLTVSS
VL: DIKMTQSPSSMYASLGERVTITCKASQDIKSYLSWFQQKPGKSPKTLIYRVNRLVDGVPSRFSGSGSGQDSSLTITSLENEDMGIYYCLQYDEFPFTFGGGTKLEIKR
binds: [1] | [2] | [3] | [4]

B2: anti-hHGF monoclonal antibody 1F3 (antibody, mouse IgG1, kappa, V domains shown)
VH: EVQLVESGGGLVQSGGSLKLSCAASGFTFSNYFMSWVRQTPEKRLEWVAYISSGGGSTYYPDSVKGRFTISRDNAKNTLYLQMSSLKSEDTAMYYCVRQGDGYYGDYAMDYWGQGTSVTVSS
VL: DIQMTQSPASLSVSVGETVTITCRASENIYSNLAWYQQKQGKSPQLLVYDATHLPDGVPSRFSGSGSGTQFSLKINSLQSEDFGSYYCQHFWGTPYTFGGGTRLEIKR
binds: [1] | [5] | [2] | [6] | [3] | [4]

B3: HE2B8-1 (LR2B8HC + IgG1 G1m(3) allele 1 plus LR2B8LC + Kappa Km(3) allele 1) (antibody, V domains shown)
VH: QVQLVQPGAEVVKPGTSVKLSCKASGYTFTTYWMHWVNQAPGQGLEWIGEINPTNGHTNYNEKFKGKATLTVDKSTSTAYMELSSLRSEDTAVYYCARNYVGSIFDYWGQGTLLTVSS
VL: DIVMTQSPDSMAMSVGERVTLNCKASENVVSYVSWYQQKPGQSPKLLIYGASNRNTGVPDRFSGSGSATDFTLTISSVQAEDVADYHCGQSYNYPYTFGQGTKLEIKR
binds: [5] | [6]

B4: HE2B8-2 (LR2B8HC + IgG1 G1m(3) allele 1 plus LRMR2B8LC + Kappa Km(3) allele 1) (antibody, V domains shown)
VH: B3 VH
VL: B3 VL with M11L, V15L, N55E, T56S
binds: [5] | [6]

B5: HE2B8-3 (LRMR2B8HC + IgG1 G1m(3) allele 1 plus LR2B8LC + Kappa Km(3) allele 1) (antibody, V domains shown)
VH: B3 VH with V12K, N38R, E62Q, K65Q, K67R
VL: B3 VL
binds: [5] | [6]

B6: HE2B8-4 (LRMR2B8HC + IgG1 G1m(3) allele 1 plus LRMR2B8LC + Kappa Km(3) allele 1) (antibody, V domains shown)
VH: B3 VH with V12K, N38R, E62Q, K65Q, K67R
VL: B3 VL with M11L, V15L, N55E, T56S
binds: [5] | [6]

B7: anti-hHGF monoclonal antibody 1A3 (antibody, mouse IgG1, kappa, V domains shown)
VH: B2 VH with S14P, G26E, F33Y, E46Q, S53P, T58S, D62A, V97A
VL: B2 VL with D50A, H53N, P55A, S85T, R103K
binds: [1] | [2] | [3] | [4]

B8: anti-hHGF monoclonal antibody 2F8 (antibody, mouse IgG1, kappa, V domains shown)
VH: QVQLKQSGAELVRPGTSVKMSCKASGYTFTTYYIHWVNQRPGQGLEWIGKIGPGSGSTYYNEMFKDKATLTVDTSSSTAYMQLSSLTSDDSAVYFCARRGLGRGFDYWGQGTTLTVSS
VL: DIVLTQSPASLAVSLGQRATISCKASQSVDYDGNSYINWYQQKPGQPPKVLIYVASNLESGIPARFSGSGSGTDFTLNIHPVEEEDAATYYCQQSIEDPPTFGAGTKLELKR
binds: [1] | [2] | [3] | [4]

B9: anti-hHGF monoclonal antibody 1D3 (antibody, mouse IgG1, kappa, V domains shown)
VH: B2 VH with S14P, N31D, F33Y, M93I, T119I
VL: B2 VL with A25T, V48I, D50A, H53N, P55A, K74R, S85R, R103K
binds: [1] | [5] | [2] | [6] | [3] | [4]
